Values of other authors in US10500225B2, “Injectable composition; method for preparing said composition; use of said composition” (KH MEDTECH SARL, priority 2015, dated 2019).
Where a name gives a salt, the structure may show the parent alone.

Details: Example 4 of WO 2010/015900

## CCN(CC)CC(=O)Nc1c(C)cccc1C [lidocaine hydrochloride]
  Time to almost total release from cross-linked hyaluronic acid-based gel: ≤ 24 h
